# Results: the supplement of paper PMC10849652
# The chains behind the UniProt entries cited, without tags or fusion partners. Where a name states a change or a piece, a line headed by the entry shows the natural chain unless it says otherwise.
# UniProt O43166: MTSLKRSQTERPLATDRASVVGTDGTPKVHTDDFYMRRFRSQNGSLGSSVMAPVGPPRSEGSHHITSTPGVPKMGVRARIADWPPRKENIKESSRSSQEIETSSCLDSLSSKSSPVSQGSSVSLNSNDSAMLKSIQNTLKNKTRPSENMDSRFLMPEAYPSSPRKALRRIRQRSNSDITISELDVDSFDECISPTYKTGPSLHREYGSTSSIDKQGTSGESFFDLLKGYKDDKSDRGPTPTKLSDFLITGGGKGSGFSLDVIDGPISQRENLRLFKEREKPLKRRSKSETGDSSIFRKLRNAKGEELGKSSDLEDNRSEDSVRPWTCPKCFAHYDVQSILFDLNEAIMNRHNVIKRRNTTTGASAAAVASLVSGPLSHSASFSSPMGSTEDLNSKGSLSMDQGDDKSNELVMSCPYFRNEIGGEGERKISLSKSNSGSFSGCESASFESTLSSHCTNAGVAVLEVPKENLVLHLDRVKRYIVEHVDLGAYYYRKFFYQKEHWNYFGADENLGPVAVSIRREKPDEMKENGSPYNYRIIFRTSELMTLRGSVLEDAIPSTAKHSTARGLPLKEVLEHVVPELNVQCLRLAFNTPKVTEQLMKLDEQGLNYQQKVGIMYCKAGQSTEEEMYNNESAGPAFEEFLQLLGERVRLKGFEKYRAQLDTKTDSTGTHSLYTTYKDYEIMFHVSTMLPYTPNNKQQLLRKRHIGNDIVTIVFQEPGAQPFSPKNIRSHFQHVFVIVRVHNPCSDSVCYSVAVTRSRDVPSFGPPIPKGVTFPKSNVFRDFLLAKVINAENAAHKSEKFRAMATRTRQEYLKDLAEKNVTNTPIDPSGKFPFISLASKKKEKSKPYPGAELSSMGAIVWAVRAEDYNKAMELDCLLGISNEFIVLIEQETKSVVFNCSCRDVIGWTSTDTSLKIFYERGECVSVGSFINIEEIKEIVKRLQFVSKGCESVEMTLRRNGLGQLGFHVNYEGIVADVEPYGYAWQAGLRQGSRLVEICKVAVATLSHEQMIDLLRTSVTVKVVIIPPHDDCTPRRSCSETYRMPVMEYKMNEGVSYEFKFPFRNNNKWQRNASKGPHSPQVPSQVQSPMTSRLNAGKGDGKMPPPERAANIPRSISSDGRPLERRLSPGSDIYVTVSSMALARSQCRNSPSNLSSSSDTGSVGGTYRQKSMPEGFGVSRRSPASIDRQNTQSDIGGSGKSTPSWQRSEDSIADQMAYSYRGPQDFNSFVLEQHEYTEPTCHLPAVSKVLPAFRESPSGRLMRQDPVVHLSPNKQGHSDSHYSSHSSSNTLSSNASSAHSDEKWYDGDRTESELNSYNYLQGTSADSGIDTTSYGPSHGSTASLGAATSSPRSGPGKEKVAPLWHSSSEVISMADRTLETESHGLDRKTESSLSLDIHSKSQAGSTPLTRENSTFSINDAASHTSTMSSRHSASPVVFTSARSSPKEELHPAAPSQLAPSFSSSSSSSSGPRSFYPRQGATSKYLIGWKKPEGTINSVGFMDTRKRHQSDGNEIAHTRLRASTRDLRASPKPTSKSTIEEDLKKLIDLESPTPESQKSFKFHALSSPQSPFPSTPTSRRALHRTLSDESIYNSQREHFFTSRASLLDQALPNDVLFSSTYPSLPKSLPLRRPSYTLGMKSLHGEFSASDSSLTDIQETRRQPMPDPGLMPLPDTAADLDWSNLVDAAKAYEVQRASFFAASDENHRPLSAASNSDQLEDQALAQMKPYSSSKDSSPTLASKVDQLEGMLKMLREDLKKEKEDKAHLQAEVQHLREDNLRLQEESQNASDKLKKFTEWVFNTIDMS
# UniProt O75563, whole entry, looked up: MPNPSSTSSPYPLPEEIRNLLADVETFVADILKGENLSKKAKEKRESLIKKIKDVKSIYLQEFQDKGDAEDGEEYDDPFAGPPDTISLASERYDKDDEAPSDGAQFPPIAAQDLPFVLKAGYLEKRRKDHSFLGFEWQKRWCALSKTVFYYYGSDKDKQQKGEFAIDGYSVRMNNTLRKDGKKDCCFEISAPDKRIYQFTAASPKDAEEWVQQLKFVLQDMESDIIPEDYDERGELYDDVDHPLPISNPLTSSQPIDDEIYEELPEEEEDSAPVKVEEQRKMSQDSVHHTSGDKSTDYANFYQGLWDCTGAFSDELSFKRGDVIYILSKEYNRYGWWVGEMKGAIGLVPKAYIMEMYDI
# UniProt Q15428: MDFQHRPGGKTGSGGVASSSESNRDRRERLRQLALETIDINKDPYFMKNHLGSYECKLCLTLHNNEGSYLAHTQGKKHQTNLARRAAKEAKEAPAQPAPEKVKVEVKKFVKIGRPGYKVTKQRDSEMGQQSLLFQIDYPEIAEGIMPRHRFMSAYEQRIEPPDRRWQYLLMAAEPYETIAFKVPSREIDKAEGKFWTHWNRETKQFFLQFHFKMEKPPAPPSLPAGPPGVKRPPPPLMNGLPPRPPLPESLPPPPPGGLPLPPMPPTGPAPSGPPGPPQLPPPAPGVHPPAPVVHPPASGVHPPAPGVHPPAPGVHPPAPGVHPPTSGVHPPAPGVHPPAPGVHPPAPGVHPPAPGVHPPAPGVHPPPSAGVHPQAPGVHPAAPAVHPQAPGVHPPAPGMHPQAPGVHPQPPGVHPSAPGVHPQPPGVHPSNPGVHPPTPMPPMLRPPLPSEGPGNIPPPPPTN
# UniProt P31947: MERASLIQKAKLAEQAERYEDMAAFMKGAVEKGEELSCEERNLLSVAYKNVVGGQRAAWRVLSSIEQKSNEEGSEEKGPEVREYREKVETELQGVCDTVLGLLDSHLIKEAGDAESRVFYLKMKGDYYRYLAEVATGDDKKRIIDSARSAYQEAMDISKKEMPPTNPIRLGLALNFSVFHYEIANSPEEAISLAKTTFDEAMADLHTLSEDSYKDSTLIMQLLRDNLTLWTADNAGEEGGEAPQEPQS
# UniProt O60239: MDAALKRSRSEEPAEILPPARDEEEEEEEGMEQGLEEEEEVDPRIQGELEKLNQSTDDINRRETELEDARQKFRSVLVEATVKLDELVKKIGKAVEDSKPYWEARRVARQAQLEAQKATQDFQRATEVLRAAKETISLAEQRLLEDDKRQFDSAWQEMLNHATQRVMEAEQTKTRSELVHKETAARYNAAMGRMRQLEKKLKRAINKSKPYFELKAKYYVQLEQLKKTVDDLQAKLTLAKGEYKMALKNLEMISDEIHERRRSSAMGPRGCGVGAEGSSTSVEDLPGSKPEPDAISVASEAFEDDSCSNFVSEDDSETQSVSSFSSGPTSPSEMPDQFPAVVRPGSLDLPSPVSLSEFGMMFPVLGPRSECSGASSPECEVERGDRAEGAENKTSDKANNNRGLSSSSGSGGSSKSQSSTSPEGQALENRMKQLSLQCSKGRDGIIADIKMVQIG
# UniProt Q9BWJ5: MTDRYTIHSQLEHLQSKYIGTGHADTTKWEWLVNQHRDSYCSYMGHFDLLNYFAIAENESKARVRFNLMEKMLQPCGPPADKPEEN
# UniProt Q96FS4: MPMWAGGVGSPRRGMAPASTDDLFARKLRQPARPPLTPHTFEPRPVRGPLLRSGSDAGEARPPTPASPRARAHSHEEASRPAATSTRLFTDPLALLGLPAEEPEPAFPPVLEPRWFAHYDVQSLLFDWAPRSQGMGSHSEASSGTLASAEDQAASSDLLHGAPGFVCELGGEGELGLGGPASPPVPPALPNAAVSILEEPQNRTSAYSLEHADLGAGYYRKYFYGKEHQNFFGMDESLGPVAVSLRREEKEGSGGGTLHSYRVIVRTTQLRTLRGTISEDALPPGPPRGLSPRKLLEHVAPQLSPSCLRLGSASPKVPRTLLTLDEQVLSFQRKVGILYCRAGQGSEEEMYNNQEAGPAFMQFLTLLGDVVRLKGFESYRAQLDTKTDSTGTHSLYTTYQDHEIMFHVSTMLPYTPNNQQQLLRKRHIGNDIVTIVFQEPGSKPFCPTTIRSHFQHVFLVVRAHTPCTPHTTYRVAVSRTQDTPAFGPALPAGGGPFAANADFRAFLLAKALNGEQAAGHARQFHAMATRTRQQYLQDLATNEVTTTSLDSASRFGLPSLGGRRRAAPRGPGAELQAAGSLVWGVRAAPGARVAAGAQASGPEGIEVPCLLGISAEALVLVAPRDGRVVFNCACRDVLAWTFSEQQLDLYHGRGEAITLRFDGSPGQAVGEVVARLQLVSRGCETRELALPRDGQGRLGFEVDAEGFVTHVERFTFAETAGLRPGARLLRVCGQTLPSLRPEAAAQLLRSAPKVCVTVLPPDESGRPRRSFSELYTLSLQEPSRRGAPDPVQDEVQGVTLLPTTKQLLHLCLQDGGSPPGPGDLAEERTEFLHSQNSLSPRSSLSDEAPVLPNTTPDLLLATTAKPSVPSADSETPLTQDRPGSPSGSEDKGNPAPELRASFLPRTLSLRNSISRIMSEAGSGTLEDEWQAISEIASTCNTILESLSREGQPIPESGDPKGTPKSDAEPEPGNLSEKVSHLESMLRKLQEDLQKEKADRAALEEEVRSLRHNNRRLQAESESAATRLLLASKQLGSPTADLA
# UniProt O95562: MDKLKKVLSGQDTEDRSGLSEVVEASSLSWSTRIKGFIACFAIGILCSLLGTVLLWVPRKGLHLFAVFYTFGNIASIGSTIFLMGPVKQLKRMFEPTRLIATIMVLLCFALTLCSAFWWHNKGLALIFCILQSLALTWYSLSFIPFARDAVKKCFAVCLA
# UniProt Q53H47: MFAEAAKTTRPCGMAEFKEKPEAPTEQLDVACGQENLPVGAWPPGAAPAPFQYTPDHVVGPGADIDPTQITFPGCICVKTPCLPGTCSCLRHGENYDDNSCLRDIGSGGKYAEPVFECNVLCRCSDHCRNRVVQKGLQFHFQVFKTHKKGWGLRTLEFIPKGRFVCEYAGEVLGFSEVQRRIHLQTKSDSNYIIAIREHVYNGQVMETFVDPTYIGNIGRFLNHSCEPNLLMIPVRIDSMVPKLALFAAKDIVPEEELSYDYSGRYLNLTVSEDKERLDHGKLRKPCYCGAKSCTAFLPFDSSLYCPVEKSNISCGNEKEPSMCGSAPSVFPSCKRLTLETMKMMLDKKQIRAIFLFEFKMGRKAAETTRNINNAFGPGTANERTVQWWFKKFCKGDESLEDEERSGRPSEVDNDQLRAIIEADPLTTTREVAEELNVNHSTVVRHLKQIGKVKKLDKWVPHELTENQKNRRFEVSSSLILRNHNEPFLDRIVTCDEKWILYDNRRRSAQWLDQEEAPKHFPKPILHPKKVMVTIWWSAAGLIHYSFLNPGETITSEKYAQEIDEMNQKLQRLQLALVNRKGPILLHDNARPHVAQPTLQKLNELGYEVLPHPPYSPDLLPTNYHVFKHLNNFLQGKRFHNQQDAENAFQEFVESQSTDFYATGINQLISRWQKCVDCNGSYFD
# UniProt P55011: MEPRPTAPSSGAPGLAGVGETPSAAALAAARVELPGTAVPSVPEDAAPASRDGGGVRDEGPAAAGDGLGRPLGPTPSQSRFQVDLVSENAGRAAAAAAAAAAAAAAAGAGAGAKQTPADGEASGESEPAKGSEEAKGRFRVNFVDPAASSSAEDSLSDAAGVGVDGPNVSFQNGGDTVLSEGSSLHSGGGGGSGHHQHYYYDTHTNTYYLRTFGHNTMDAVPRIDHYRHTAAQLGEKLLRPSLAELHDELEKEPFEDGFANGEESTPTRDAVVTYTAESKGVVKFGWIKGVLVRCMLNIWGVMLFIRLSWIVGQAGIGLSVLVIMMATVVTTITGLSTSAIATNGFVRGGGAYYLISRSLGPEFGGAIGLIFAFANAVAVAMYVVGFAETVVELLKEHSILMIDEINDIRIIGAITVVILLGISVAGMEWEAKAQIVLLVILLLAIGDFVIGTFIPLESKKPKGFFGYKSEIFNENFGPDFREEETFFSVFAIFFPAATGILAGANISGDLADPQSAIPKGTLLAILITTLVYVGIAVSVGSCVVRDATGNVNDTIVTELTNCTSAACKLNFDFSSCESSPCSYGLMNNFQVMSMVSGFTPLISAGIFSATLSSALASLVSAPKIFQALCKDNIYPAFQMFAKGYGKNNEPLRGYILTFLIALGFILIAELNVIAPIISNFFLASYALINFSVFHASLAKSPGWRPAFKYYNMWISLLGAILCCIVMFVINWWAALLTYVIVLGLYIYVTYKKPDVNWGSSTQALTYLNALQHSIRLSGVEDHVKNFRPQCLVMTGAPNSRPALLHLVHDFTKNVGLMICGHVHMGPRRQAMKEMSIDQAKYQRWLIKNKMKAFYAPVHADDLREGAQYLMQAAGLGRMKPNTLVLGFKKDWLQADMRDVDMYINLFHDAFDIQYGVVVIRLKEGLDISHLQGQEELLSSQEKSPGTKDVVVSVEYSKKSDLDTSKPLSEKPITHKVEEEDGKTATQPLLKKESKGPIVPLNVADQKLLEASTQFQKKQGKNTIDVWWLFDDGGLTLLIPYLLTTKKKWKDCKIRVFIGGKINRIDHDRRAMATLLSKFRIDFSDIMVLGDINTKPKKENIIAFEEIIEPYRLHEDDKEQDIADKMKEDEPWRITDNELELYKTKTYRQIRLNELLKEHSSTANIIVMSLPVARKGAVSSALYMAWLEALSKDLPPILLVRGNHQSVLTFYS
# The other results are listed elsewhere or left out.
# Key:
# Assay in all cases: log2 fold change, soluble protein after heating vs DMSO (PISA); higher = thermal stabilisation; K562 lysate, 10 uM; active = over 0.2 and 3.5 SD of the protein, either way, in both replicates (recomputed)
# [1] = compound: CCCS(=O)(=O)Nc1ccc(F)c(C(=O)c2c[nH]c3ncc(-c4ccc(Cl)cc4)cc23)c1F [vemurafenib]
# Summary of the method: (§1)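 K562 pellets were dounce-homogenised in PBS pH 7.4 containing 1 mM MgCl2, and the crude extract, at 1 mg/mL protein, was exposed to 10 μM compound for 30 min. Aliquots were heated for 3 min across 48°C-58°C, pooled, brought to 0.5% NP-40 at 4°C and spun at 21,000xg for 90 min, with the supernatant taken as soluble protein. TMTpro 16plex LC-MS/MS with equalised channel sums quantified that protein. Values are log-two fold changes in thermal stability relative to solvent controls, taken from duplicates.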
# [2] = compound: CCCS(=O)(=O)Nc1ccc(F)c(C(=O)c2c[nH]c3ncc(Cl)cc23)c1F
# Summary of the method: as §1
# [3] = compound: CCN(CCCOc1ccc2c(Nc3cc(CC(=O)Nc4cccc(F)c4)[nH]n3)ncnc2c1)CCOP(=O)(O)O [barasertib]
# Summary of the method: as §1
# [4] = compound: CC[C@@H]1C(=O)N(C)c2cnc(Nc3ccc(C(=O)NC4CCN(C)CC4)cc3OC)nc2N1C1CCCC1
# Summary of the method: as §1
# [5] = compound: CC[C@@H]1C(=O)N(C)c2cnc(Nc3ccc(C(=O)N[C@H]4CC[C@H](N5CCN(CC6CC6)CC5)CC4)cc3OC)nc2N1C(C)C [volasertib]
# Summary of the method: as §1
# [6] = compound: CCn1cc(-c2ccnc3[nH]c(-c4cccc(CN(C)C)c4)cc23)c(-c2ccc(NC(=O)N(C)C)cc2)n1
# Summary of the method: as §1
# [7] = compound: CN1CCC(CNc2ccc3ncc(-c4cccc(OC(F)(F)F)c4)n3n2)CC1
# Summary of the method: as §1
# [8] = compound: CN1CCN(c2nc(C3=C(c4c[nH]c5ccccc45)C(=O)NC3=O)c3ccccc3n2)CC1 [sotrastaurin]
# Summary of the method: as §1
# [9] = compound: CN1CC[C@H](c2c(O)cc(O)c3c(=O)cc(-c4ccccc4Cl)oc23)[C@H](O)C1 [alvocidib]
# Summary of the method: as §1
# [10] = compound: CNC(=O)C1=CC=CC=C1NC2=NC(=NC=C2Cl)NC3=C(C=C(C=C3)N4CCOCC4)OC
# Summary of the method: as §1
# [11] = compound: CNC(=O)c1ccc(Nc2ncc(C(F)(F)F)c(NCc3nccnc3N(C)S(C)(=O)=O)n2)cc1 [defactinib]
# Summary of the method: as §1
# [12] = compound: COC(=O)N[C@@H](C)CNc1nccc(-c2cn(C(C)C)nc2-c2cc(Cl)cc(NS(C)(=O)=O)c2F)n1 [encorafenib]
# Summary of the method: as §1
# [13] = compound: COC(=O)[C@H](CCSC)NC(=O)C1=C(C=C(C=C1)NC[C@H](CS)N)C2=CC=CC=C2
# Summary of the method: as §1
# [14] = compound: COc1cc2nc(-c3cc(F)ccc3O)nc(N[C@@H]3CNC[C@H]3C(C)(C)O)c2cc1OC
# Summary of the method: as §1
# [15] = compound: CCn1c(C(=O)N(C2CC2)C2CC2)cc2c3c(ncn3C)c(Nc3cc(C)n(C)n3)nc21
# Summary of the method: as §1
# [16] = compound: CN1CCN(CCOc2cc(OC3CCOCC3)c3c(Nc4c(Cl)ccc5c4OCO5)ncnc3c2)CC1 [saracatinib]
# Summary of the method: as §1
# [17] = compound: CN1CCc2c(c3ccccc3n2Cc2ccc(C(=O)NO)cc2)C1 [Tubastatin A]
# Summary of the method: as §1
# [18] = compound: CNc1nc(-c2ccc3c(N)n[nH]c3c2)cc(N2C[C@@H](C(=O)NC3CCCCC3)CC[C@H]2C)n1
# Summary of the method: as §1
# [19] = compound: COc1cc(Nc2ncc3c(n2)-c2ccc(Cl)cc2C(c2c(F)cccc2OC)=NC3)ccc1C(=O)O [alisertib]
# Summary of the method: as §1
# [20] = compound: COc1cc2ncnc(Nc3ccc(F)c(Cl)c3)c2cc1OCCCN1CCOCC1 [gefitinib]
# Summary of the method: as §1
Target,log2 fold change [1],log2 fold change [2],log2 fold change [3],log2 fold change [4],log2 fold change [5],log2 fold change [6],log2 fold change [7],log2 fold change [8],log2 fold change [9],log2 fold change [10],log2 fold change [11],log2 fold change [12],log2 fold change [13],log2 fold change [14],log2 fold change [15],log2 fold change [16],log2 fold change [17],log2 fold change [18],log2 fold change [19],log2 fold change [20]
SLC22A18 (UniProt Q96BI1),inactive: 0.026,inactive: 0.046,inactive: -0.059,inactive: 0.044,inactive: 0.08,inactive: 0.026,inactive: -0.032,inactive: 0.073,inactive: -0.035,inactive: 0.052,inactive: -0.076,inactive: 0.009,inactive: -0.013,inactive: -0.077,–,–,–,–,–,–
SLC12A9 (UniProt Q9BXP2),inactive: 0.012,inactive: 0.018,inactive: 0.026,–,inactive: -0.019,inactive: -0.028,inactive: 0.059,inactive: 0.032,inactive: -0.017,inactive: 0.007,inactive: 0.024,–,–,inactive: -0.012,inactive: 0.051,inactive: 0.058,inactive: 0.214,inactive: 0.067,inactive: 0.048,inactive: 0.068
SIPA1L1 (UniProt O43166),inactive: 0.004,inactive: -0.064,inactive: -0.03,inactive: 0.017,inactive: -0.049,inactive: -0.195,inactive: 0.078,inactive: 0.204,inactive: -0.082,inactive: -0.081,inactive: 0.022,inactive: -0.052,inactive: 0.063,inactive: 0.044,inactive: 0.083,–,inactive: 0.021,–,inactive: -0.001,inactive: 0.05
SHFL (UniProt Q9NUL5),inactive: -0.065,inactive: 0.016,inactive: 0.084,inactive: 0.037,inactive: 0.043,–,–,inactive: 0.094,–,inactive: -0.062,inactive: 0.01,inactive: 0,inactive: -0.037,inactive: -0.003,inactive: 0.045,inactive: 0.01,inactive: 0.025,inactive: 0.026,inactive: -0.029,inactive: 0.034
SKAP2 (UniProt O75563),inactive: 0.049,inactive: 0.038,inactive: 0.069,inactive: 0.011,inactive: -0.024,inactive: -0.146,inactive: -0.016,inactive: 0.035,inactive: 0.056,inactive: 0,inactive: 0.044,inactive: 0.049,inactive: 0.008,inactive: 0.028,inactive: -0.151,inactive: 0.026,inactive: 0.056,inactive: -0.01,inactive: -0.02,inactive: 0.005
SF3A2 (UniProt Q15428),inactive: -0.053,inactive: 0.019,inactive: -0.049,inactive: -0.026,inactive: -0.008,inactive: -0.262,inactive: 0.108,inactive: 0.013,inactive: 0.014,inactive: -0.01,inactive: 0.003,inactive: 0.01,inactive: 0.042,inactive: 0.012,inactive: 0.037,inactive: -0.008,inactive: -0.011,inactive: -0.023,inactive: 0.003,inactive: -0.022
SFN (UniProt P31947),inactive: -0.038,inactive: 0.003,inactive: -0.025,inactive: 0.006,inactive: 0.029,active: 0.521,inactive: -0.084,inactive: -0.01,inactive: 0.05,inactive: -0.009,inactive: 0.052,inactive: -0.024,inactive: 0.065,inactive: 0.008,inactive: 0.023,inactive: -0.003,inactive: 0.054,inactive: -0.017,inactive: 0.076,inactive: -0.008
SH3BP5 (UniProt O60239),inactive: 0.007,inactive: 0.049,inactive: 0.053,inactive: 0.043,inactive: -0.027,inactive: 0.1,inactive: -0.019,inactive: 0.06,inactive: 0.033,inactive: 0.044,inactive: -0.026,inactive: 0.06,inactive: -0.093,inactive: 0.051,inactive: 0.025,inactive: -0.001,inactive: 0.04,inactive: 0.019,inactive: -0.041,inactive: 0.134
SF3B5 (UniProt Q9BWJ5),inactive: 0.022,inactive: 0.04,inactive: 0.075,inactive: -0.089,inactive: -0.004,inactive: 0,inactive: -0.033,inactive: 0.004,inactive: 0.161,inactive: 0.02,inactive: 0.082,inactive: 0.039,inactive: 0.12,inactive: -0.022,inactive: -0.039,inactive: 0.086,inactive: -0.015,inactive: 0.024,inactive: -0.129,inactive: -0.024
SF1 isoform 6 (UniProt Q15637),inactive: -0.027,inactive: 0.001,inactive: 0.046,inactive: 0.256,inactive: -0.001,inactive: -0.005,inactive: 0.034,–,inactive: 0.009,inactive: 0.053,inactive: 0.033,inactive: 0.082,inactive: 0.066,inactive: -0.046,inactive: -0.043,inactive: 0.156,inactive: 0.09,inactive: 0.367,inactive: -0.01,inactive: 0.045
SH3GL3 isoform 3 (UniProt Q99963),inactive: 0.08,inactive: 0.012,inactive: 0.063,inactive: -0.032,inactive: -0.049,active: -0.761,inactive: 0.33,inactive: 0.035,inactive: -0.263,inactive: 0.024,inactive: -0.063,inactive: 0.072,inactive: -0.041,inactive: 0.09,inactive: -0.051,inactive: -0.008,inactive: -0.14,inactive: 0.15,inactive: -0.076,inactive: 0.041
SIPA1 (UniProt Q96FS4),inactive: 0.005,inactive: 0.079,inactive: 0.023,inactive: -0.034,inactive: 0.008,inactive: -0.095,inactive: 0.068,inactive: 0.013,inactive: -0.039,inactive: 0.022,inactive: 0.008,inactive: 0.041,inactive: 0.105,inactive: -0.058,inactive: -0.007,inactive: -0.002,inactive: 0.011,inactive: 0.117,inactive: -0.029,inactive: 0.016
SIRT5 (UniProt Q9NXA8),inactive: -0.079,inactive: 0.11,inactive: -0.011,inactive: -0.033,inactive: -0.025,inactive: 0.154,inactive: 0.017,inactive: -0.062,inactive: 0.022,inactive: 0.013,inactive: -0.074,inactive: 0.027,inactive: 0.041,inactive: 0.009,inactive: 0.02,inactive: -0.017,inactive: -0.02,inactive: -0.081,inactive: 0.063,inactive: -0.111
SFT2D2 (UniProt O95562),inactive: -0.117,inactive: -0.035,inactive: 0.008,inactive: -0.158,inactive: 0.071,inactive: 0.067,inactive: 0.143,inactive: 0.059,inactive: -0.03,inactive: 0.039,inactive: -0.025,inactive: 0.018,inactive: -0.15,inactive: -0.021,inactive: -0.027,inactive: 0.257,inactive: 0,inactive: 0.045,inactive: -0.003,inactive: -0.017
SETMAR (UniProt Q53H47),inactive: 0.033,inactive: 0.038,inactive: -0.031,inactive: -0.042,inactive: -0.01,inactive: -0.078,inactive: -0.023,inactive: 0.032,inactive: -0.027,inactive: -0.004,inactive: 0.003,inactive: -0.246,inactive: 0.018,inactive: 0.007,inactive: 0.01,inactive: 0.04,inactive: 0.026,inactive: -0.008,inactive: -0.014,inactive: -0.001
SLC12A2 (UniProt P55011),inactive: 0.008,inactive: -0.005,inactive: 0.056,inactive: 0.007,inactive: -0.047,inactive: 0.13,inactive: -0.073,inactive: 0.03,inactive: 0.05,inactive: -0.044,inactive: 0.018,inactive: 0.014,inactive: 0.059,inactive: 0.006,inactive: -0.017,inactive: 0.01,inactive: 0.046,inactive: -0.026,inactive: -0.001,inactive: 0.035

# Shown with tabs: part of the list above
Target	log2 fold change [1]	log2 fold change [2]	log2 fold change [3]	log2 fold change [4]	log2 fold change [5]	log2 fold change [6]	log2 fold change [7]	log2 fold change [8]	log2 fold change [9]	log2 fold change [10]	log2 fold change [11]	log2 fold change [12]	log2 fold change [13]	log2 fold change [14]	log2 fold change [15]	log2 fold change [16]	log2 fold change [17]	log2 fold change [18]	log2 fold change [19]	log2 fold change [20]
SFN (UniProt P31947)	inactive: -0.038	inactive: 0.003	inactive: -0.025	inactive: 0.006	inactive: 0.029	active: 0.521	inactive: -0.084	inactive: -0.01	inactive: 0.05	inactive: -0.009	inactive: 0.052	inactive: -0.024	inactive: 0.065	inactive: 0.008	inactive: 0.023	inactive: -0.003	inactive: 0.054	inactive: -0.017	inactive: 0.076	inactive: -0.008
SH3BP5 (UniProt O60239)	inactive: 0.007	inactive: 0.049	inactive: 0.053	inactive: 0.043	inactive: -0.027	inactive: 0.1	inactive: -0.019	inactive: 0.06	inactive: 0.033	inactive: 0.044	inactive: -0.026	inactive: 0.06	inactive: -0.093	inactive: 0.051	inactive: 0.025	inactive: -0.001	inactive: 0.04	inactive: 0.019	inactive: -0.041	inactive: 0.134
